Data source: PubChem BioAssay AID720505 (Drosophila RNAi Screening Center, 2013)
The deposit covers about 20,000 reagents; below is a random part of those with a known target gene and a result. Of all reagents, about 2,100 (10%) got an active call. 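Raw plate signals without normalisation; calls rest on control-based scores that were not deposited; replicate 2 separates called from uncalled poorly.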 A plus sign joins genes that one reagent is predicted to hit. Not given: the amount of reagent, the time to read-out.

Purpose: 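Knock-downs that reduce calcium influx once internal stores are emptied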 (primary screen)
System: Drosophila S2R+ cells
Reagent: long dsRNA against Drosophila genes
Treatment: thapsigargin (2 µM) in calcium-free buffer to empty internal stores, then 2 mM calcium added back
Detection: 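Stores emptied by 2 µM thapsigargin without calcium, then 2 mM calcium re-added; fluo-4 fluorescence followed by FLIPR in 384-well plates, per-well averaged endpoint, raw; two screen passes, some wells retested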
Reading the numbers: calcium signal and retest calcium signal: higher = more calcium entry after store depletion
Call rule: 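Knock-downs counted as hits when calcium entry dropped relative to STIM1 positive and Rho1 negative controls present on each plate; roughly 1500 genes called, with reductions of differing size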
Calls: active = called as lowering calcium entry; inactive = not called

Target gene | dsRNA | calcium signal, replicate 1 | calcium signal, replicate 2 | retest calcium signal, replicate 1 | retest calcium signal, replicate 2 | activity call
CG18281 | DRSC11742 | 141 | 106 | – | – | inactive
PPP4R2r (Protein phosphatase 4 regulatory subunit 2-related protein) | DRSC18695 | 85.3 | 126 | 5737 | 113 | inactive
PPP4R2r (Protein phosphatase 4 regulatory subunit 2-related protein) | DRSC21503 | 122 | 97.1 | – | – | inactive
Galphaq (G protein alpha subunit q) | DRSC07432 | 131 | 150 | – | – | inactive
PheRS-m (Phenylalanyl-tRNA synthetase, mitochondrial) | DRSC05915 | 198 | 170 | – | – | inactive
Rtf1 | DRSC04085 | 131 | 125 | – | – | inactive
Pi3K59F (Phosphatidylinositol 3-kinase 59F) | DRSC04640 | 158 | 93.2 | – | – | inactive
CG8997 | DRSC01900 | 74.1 | 104 | – | – | active
tefu (telomere fusion) | DRSC16060 | 106 | 133 | – | – | inactive
trol (terribly reduced optic lobes) | DRSC17718 | – | – | – | – | inactive
trol (terribly reduced optic lobes) | DRSC18613 | 66.4 | 132 | – | – | active
trol (terribly reduced optic lobes) | DRSC18814 | 70.8 | 134 | – | – | inactive
Tep2 (Thioester-containing protein 2) | DRSC02679 | 221 | 92.4 | – | – | inactive
Tep2 (Thioester-containing protein 2) | DRSC03451 | 61.5 | 204 | – | – | active
Pop1 (POP1 ribonuclease P/MRP subunit) | DRSC17739 | 109 | 93.6 | – | – | inactive
CG33110 | DRSC14694 | 179 | 81.6 | – | – | inactive
CG33110 | DRSC16137 | 169 | 99.9 | – | – | inactive
papi | DRSC00693 | 91 | 132 | – | – | inactive
Rat1 (Rat1 5'-3' exoribonuclease) | DRSC02044 | 91.1 | 139 | – | – | inactive
CG1662 | DRSC19754 | 117 | 122 | – | – | inactive
Gdap2 | DRSC06789 | 129 | 149 | – | – | inactive
Gdap2 | DRSC06790 | 128 | 178 | – | – | inactive
superdeath (Suppressor of ER stress-induced death) | DRSC14868 | 96.7 | 143 | – | – | inactive
GrlHz (Gustatory receptor-like Holozoa) | DRSC04424 | 146 | 87 | – | – | inactive
lncRNA:CR32835 (long non-coding RNA:CR32835) | DRSC22693 | 82.8 | 125 | – | – | inactive
robl22E | DRSC00289 | 164 | 147 | – | – | inactive
CG12499 | DRSC14521 | 107 | 112 | – | – | inactive
Fbxo42 (F-box protein 42) | DRSC04529 | 92.3 | 101 | – | – | inactive
CG9921 | DRSC20220 | 107 | 154 | – | – | inactive
Ugt35E1 (UDP-glycosyltransferase family 35 member E1) | DRSC15193 | 64.8 | 124 | – | – | active
D (Dichaete) | DRSC11132 | 79 | 136 | – | – | inactive
CG9760 | DRSC11101 | 48.9 | 72.5 | – | – | active
Cpr30B (Cuticular protein 30B) | DRSC02728 | 161 | 171 | – | – | inactive
CG32161 | DRSC22128 | 71.9 | 105 | – | – | inactive
HemK2 + Snapin | DRSC00736 | 84.5 | 286 | – | – | inactive
HemK2 + Snapin | DRSC00737 | 206 | 105 | – | – | inactive
Ir93a (Ionotropic receptor 93a) | DRSC15212 | 187 | 319 | – | – | inactive
Ir93a (Ionotropic receptor 93a) | DRSC15213 | 198 | 122 | – | – | inactive
Tdrd3 (Tudor domain containing 3) | DRSC10016 | 119 | 130 | – | – | inactive
ND-30 (NADH dehydrogenase (ubiquinone) 30 kDa subunit) | DRSC08243 | 99.8 | 79.2 | – | – | inactive
CG31562 (retired record) | DRSC12273 | 79.4 | 171 | – | – | inactive
CG31562 (retired record) | DRSC12274 | 91.2 | 149 | – | – | inactive
Awh (Arrowhead) | DRSC08140 | 75.1 | 75.2 | – | – | inactive
CG11134 | DRSC19384 | 115 | 169 | – | – | inactive
CG11608 | DRSC14334 | 133 | 86.5 | – | – | inactive
kto (kohtalo) | DRSC10983 | 129 | 113 | – | – | inactive
Gmppa (GDP-mannose pyrophosphorylase A) | DRSC07108 | 113 | 213 | – | – | inactive
CG15196 | DRSC19643 | 76.2 | 84.8 | – | – | inactive
CG32271 | DRSC08198 | 109 | 136 | – | – | inactive
CG10366 | DRSC02046 | 92.5 | 104 | – | – | inactive
PolZ2 (DNA polymerase zeta subunit 2) | DRSC12325 | 189 | 150 | – | – | inactive
spz4 (spatzle 4) | DRSC02410 | 186 | 162 | – | – | inactive
mRpL49 (mitochondrial ribosomal protein L49) | DRSC19908 | 126 | 106 | – | – | inactive
lectin-24Db | DRSC00553 | 130 | 242 | – | – | inactive
ttm50 (tiny tim 50) | DRSC18587 | 122 | 137 | – | – | inactive
CG6565 | DRSC02970 | 97.3 | 137 | – | – | inactive
Prosalpha6T (Proteasome alpha6 subunit, Testis-specific) | DRSC02873 | 121 | 89.4 | – | – | inactive
UQCR-6.4 (Ubiquinol-cytochrome c reductase 6.4 kDa subunit) | DRSC06454 | 184 | 134 | – | – | inactive
koi (klaroid) | DRSC04980 | 109 | 74.8 | – | – | inactive
koi (klaroid) | DRSC04991 | 92.6 | 97.8 | – | – | inactive
clu (clueless) | DRSC07181 | 115 | 82.9 | – | – | inactive
Miox (Myo-inositol oxygenase) | DRSC10747 | 95 | 104 | – | – | inactive
CG13995 | DRSC00907 | 121 | 118 | 8951 | 181 | inactive
CG13995 | DRSC02327 | 156 | 109 | – | – | inactive
CG13995 | DRSC22767 | 109 | 188 | – | – | inactive
SkpE (SKP1-related E) | DRSC19431 | 168 | 96 | – | – | inactive
dx (deltex) | DRSC18767 | 102 | 139 | – | – | active
l(3)80Fj (lethal (3) 80Fj) | DRSC20986 | 114 | 10872 | – | – | inactive
l(3)80Fj (lethal (3) 80Fj) | DRSC20989 | 114 | 113 | – | – | inactive
CG13622 | DRSC14624 | 278 | 130 | – | – | inactive
CG5938 | DRSC15923 | 89.9 | 88.7 | – | – | inactive
Nrt (Neurotactin) | DRSC11237 | 128 | 98.8 | – | – | inactive
CG15219 | DRSC03715 | 142 | 115 | – | – | inactive
mrj | DRSC22592 | 121 | 138 | – | – | inactive
CG10841 | DRSC14271 | 104 | 84.1 | – | – | inactive
SPARC (Secreted protein, acidic, cysteine-rich) | DRSC14123 | 111 | 107 | – | – | inactive
Moe (Moesin) | DRSC18684 | 121 | 136 | – | – | inactive
CG5880 | DRSC15906 | 110 | 143 | – | – | inactive
lncRNA:CR43372 (long non-coding RNA:CR43372) | DRSC15041 | 110 | 105 | – | – | inactive
CG12617 | DRSC02176 | 101 | 106 | – | – | inactive
CG7974 | DRSC08607 | 214 | 87.1 | – | – | inactive
Agpat3 (1-Acylglycerol-3-phosphate O-acyltransferase 3) | DRSC10445 | 125 | 91 | – | – | inactive
CG15186 | DRSC12566 | 125 | 141 | – | – | inactive

Hits (from the list above):
Target gene | dsRNA | calcium signal, replicate 1 | calcium signal, replicate 2 | retest calcium signal, replicate 1 | retest calcium signal, replicate 2 | activity call
CG8997 | DRSC01900 | 74.1 | 104 | – | – | active
trol (terribly reduced optic lobes) | DRSC18613 | 66.4 | 132 | – | – | active
Tep2 (Thioester-containing protein 2) | DRSC03451 | 61.5 | 204 | – | – | active
Ugt35E1 (UDP-glycosyltransferase family 35 member E1) | DRSC15193 | 64.8 | 124 | – | – | active
CG9760 | DRSC11101 | 48.9 | 72.5 | – | – | active
dx (deltex) | DRSC18767 | 102 | 139 | – | – | active
